US8822523B2, “Carboxamide microbiocides” (Syngenta Participations AG, priority 2011, dated 2014)
Some results were stated once for a whole list of compounds, not compound by compound.

Columns and labels:
Puccinia recondita [1] = test: Puccinia recondita / wheat / leaf disc preventative (brown rust); type: in vivo; details: 200 ppm active ingredient, wheat leaf segments, preventive, assessed 8 dpi
Protocol: Puccinia recondita/Wheat/Leaf Disc Preventative (Brown Rust)
Wheat leaf segments were placed on agar in multiwell plates (24-well format) and sprayed with test solutions (200 ppm active ingredient). After drying, the leaf disks were inoculated with a spore suspension of the fungus. After appropriate incubation the activity of a compound was assessed 8 dpi (days after inoculation) as preventive fungicidal activity. The activity of a compound was expressed as fungal growth inhibition (0=no growth inhibition, ratings of 80% to 99% mean good to very good inhibition, 100%=complete inhibition).

Puccinia recondita [2] = test: Puccinia recondita / wheat / leaf disc curative (brown rust); type: in vivo; details: 200 ppm active ingredient applied one day after inoculation, wheat leaf segments, assessed 8 dpi
Protocol: Puccinia recondita/Wheat/Leaf Disc Curative (Brown Rust)
Wheat leaf segments were placed on agar in multiwell plates (24-well format). The leaf disks were then inoculated with a spore suspension of the fungus One day after inoculation the test solution was applied (200 ppm active ingredient). After appropriate incubation the activity of a compound was assessed 8 dpi (days after inoculation) as curative fungicidal activity. The activity of a compound was expressed as fungal growth inhibition (0=no growth inhibition, ratings of 80% to 99% mean good to very good inhibition, 100%=complete inhibition).

Pyrenophora teres = Pyrenophora teres / barley / leaf disc preventive (net blotch); type: in vivo; details: 200 ppm active ingredient, barley leaf segments, assessed 4 dpi
[3] = test system: Botryotinia fuckeliana (Botrytis cinerea); test: Botryotinia fuckeliana (Botrytis cinerea) / liquid culture (gray mould); type: cell-based; details: 200 ppm active ingredient, nutrient broth, 24° C., photometrically after 3-4 days
[4] = test system: Mycosphaerella arachidis (Cercospora arachidicola); test: Mycosphaerella arachidis (Cercospora arachidicola) / liquid culture (early leaf spot); type: cell-based; details: 200 ppm active ingredient, PDB potato dextrose broth, 24° C., photometrically after 6-7 days
Protocol: Mycosphaerella arachidis (Cercospora arachidicola)/Liquid Culture (Early Leaf Spot)
(§1) Conidia of the fungus from cryogenic storage were directly mixed into nutrient broth (PDB potato dextrose broth). After placing a (DMSO) solution of the test compounds (200 ppm active ingredient) into a microtiter plate (96-well format) the nutrient broth containing the fungal spores was added. The test plates were incubated at 24° C. and the inhibition of growth was measured photometrically after 6-7 days. The activity of a compound was expressed as fungal growth inhibition (0=no growth inhibition, ratings of 80% to 99% mean good to very good inhibition, 100%=complete inhibition).

[5] = test system: Mycosphaerella graminicola (Septoria tritici); test: Mycosphaerella graminicola (Septoria tritici) / liquid culture (Septoria blotch); type: cell-based; details: 200 ppm active ingredient, PDB potato dextrose broth, 24° C., photometrically after 4 days
Protocol: Mycosphaerella graminicola (Septoria tritici)/Liquid Culture (Septoria blotch)
as §1, with “4” for “6-7”

[6] = test system: Thanatephorus cucumeris (Rhizoctonia solani); test: Thanatephorus cucumeris (Rhizoctonia solani) / liquid culture (foot rot, damping-off); type: cell-based; details: PDB potato dextrose broth, 24° C., photometrically 3-4 days after application; concentration not given
Plasmopara viticola = Plasmopara viticola / grape / leaf disc preventative; type: in vivo; details: 200 ppm active ingredient, grape vine leaf disks, preventive, assessed 7 dpi
[7] = test system: Blumeria Qraminis f. sp. tritici (Erysiphe Graminis f. sp. tritici); test: Blumeria graminis f. sp. tritici / wheat / leaf disc preventive (powdery mildew on wheat); type: in vivo; details: 200 ppm active ingredient, wheat leaf segments, assessed 4 dpi

Measured: fungal growth inhibition

CON(C(=O)c1cn(C)nc1C(F)(F)F)C1CCCCc2ccsc21 (stereo not shown) [Compound 2.34]
not listed: Plasmopara viticola | [7]
≥ 80%: all other assays above

CON(C(=O)c1cn(C)nc1C(F)(F)F)C1CCCCc2cc(Br)sc21 (stereo not shown) [Compound 2.40]
not listed: Plasmopara viticola | [7]
≥ 80%: all other assays above

CON(C(=O)c1cn(C)nc1C(F)F)C1CCCCc2sc(Br)cc21 (stereo not shown) [Compound 1.41]
not listed: Plasmopara viticola | [7]
≥ 80%: all other assays above

CON(C(=O)c1cn(C)cc1C(F)F)C1CCCCc2sc(Cl)cc21 (stereo not shown) [Compound 1.5]
≥ 70%: [7]
≥ 50%: Plasmopara viticola
≥ 80%: all other assays above

CON(C(=O)c1cn(C)nc1C(F)F)C1CCCCc2sccc21 (stereo not shown) [Compound 1.35]
≥ 70%: [7]
not listed: Plasmopara viticola
≥ 80%: all other assays above

CON(C(=O)c1cn(C)cc1C(F)F)C1CCCCc2sccc21 (stereo not shown) [Compound 1.2]
≥ 50%: Plasmopara viticola
≥ 70%: [7]
≥ 80%: all other assays above

CON(C(=O)c1cn(C)nc1C(F)F)C1CCCCc2cc(Cl)sc21 (stereo not shown) [Compound 2.38]
not listed: Plasmopara viticola | [7]
≥ 80%: all other assays above

CON(C(=O)c1cn(C)nc1C(F)(F)F)C1CCCCc2sc(Cl)cc21 (stereo not shown) [Compound 1.37]
not listed: Plasmopara viticola | [7]
≥ 80%: all other assays above

CON(C(=O)c1cn(C)nc1C(F)(F)F)C1CCCCc2sc(Br)cc21 (stereo not shown) [Compound 1.40]
not listed: Plasmopara viticola | [7]
≥ 80%: all other assays above

CON(C(=O)c1cn(C)nc1C(F)(F)F)C1CCCCc2cc(Cl)sc21 (stereo not shown) [Compound 2.37]
not listed: Plasmopara viticola | [7]
≥ 80%: all other assays above

CON(C(=O)c1cn(C)cc1C(F)(F)F)C1CCCCc2sc(Cl)cc21 (stereo not shown) [Compound 1.4]
not listed: Pyrenophora teres | Plasmopara viticola | [7]
≥ 80%: all other assays above

CON(C(=O)c1cn(C)nc1C(F)F)C1CCCCc2cc(Br)sc21 (stereo not shown) [Compound 2.41, 3-difluoromethyl-1-methyl-1-H-pyrazole-4-carboxylic acid (2-bromo-5,6,7,8-tetrahydro-4H-cyclohepta[b]thiophen-8-yl) methoxy amide]
not listed: Plasmopara viticola | [7]
≥ 80%: all other assays above
